Test results as given in the supplement of paper PMC10849652.
The list shows a part of the results.

The chains behind the UniProt entries cited, without tags or fusion partners. Where a name states a change or a piece, a line headed by the entry shows the natural chain unless it says otherwise.
UniProt P09382, whole entry, looked up: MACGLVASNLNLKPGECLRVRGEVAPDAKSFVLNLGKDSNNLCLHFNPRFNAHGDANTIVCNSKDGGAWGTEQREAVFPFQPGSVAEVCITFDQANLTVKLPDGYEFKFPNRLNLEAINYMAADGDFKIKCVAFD
UniProt P07195, whole entry, looked up: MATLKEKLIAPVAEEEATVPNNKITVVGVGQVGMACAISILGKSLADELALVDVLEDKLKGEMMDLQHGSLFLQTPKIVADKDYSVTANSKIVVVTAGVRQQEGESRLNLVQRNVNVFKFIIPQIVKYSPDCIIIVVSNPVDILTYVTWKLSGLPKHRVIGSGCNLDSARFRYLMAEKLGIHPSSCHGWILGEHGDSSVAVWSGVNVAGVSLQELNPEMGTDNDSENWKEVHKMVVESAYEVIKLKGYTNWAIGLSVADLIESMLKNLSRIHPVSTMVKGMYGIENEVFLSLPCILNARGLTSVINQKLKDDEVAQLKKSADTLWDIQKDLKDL
UniProt P25791: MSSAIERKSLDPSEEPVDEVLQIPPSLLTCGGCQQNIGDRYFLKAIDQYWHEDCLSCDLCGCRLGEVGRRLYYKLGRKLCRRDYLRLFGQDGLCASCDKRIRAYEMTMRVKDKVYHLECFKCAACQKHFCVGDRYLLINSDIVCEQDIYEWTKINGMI
UniProt P49917: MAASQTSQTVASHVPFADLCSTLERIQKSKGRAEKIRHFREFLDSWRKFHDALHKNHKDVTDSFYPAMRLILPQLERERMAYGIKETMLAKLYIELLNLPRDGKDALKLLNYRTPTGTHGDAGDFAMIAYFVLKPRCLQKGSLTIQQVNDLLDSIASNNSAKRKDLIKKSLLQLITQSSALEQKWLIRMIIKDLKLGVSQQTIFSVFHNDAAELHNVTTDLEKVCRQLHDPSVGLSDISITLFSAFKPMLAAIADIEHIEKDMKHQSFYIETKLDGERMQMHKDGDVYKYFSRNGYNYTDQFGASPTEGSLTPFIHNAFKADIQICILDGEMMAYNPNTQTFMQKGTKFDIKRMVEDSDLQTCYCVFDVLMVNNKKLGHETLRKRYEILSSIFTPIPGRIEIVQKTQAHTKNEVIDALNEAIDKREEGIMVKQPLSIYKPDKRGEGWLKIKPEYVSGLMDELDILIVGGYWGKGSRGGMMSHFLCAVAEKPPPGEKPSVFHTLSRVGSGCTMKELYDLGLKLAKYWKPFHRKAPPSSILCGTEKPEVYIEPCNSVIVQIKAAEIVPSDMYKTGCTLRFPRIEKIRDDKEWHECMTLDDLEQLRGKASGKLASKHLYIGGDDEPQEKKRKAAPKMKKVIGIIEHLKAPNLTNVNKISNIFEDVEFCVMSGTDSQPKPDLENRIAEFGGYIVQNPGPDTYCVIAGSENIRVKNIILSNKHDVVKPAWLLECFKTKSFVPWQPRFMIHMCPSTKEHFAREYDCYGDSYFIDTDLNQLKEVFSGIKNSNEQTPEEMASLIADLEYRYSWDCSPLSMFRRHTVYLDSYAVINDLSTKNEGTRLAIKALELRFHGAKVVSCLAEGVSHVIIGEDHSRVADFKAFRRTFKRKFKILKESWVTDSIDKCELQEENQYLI
UniProt Q96GY3: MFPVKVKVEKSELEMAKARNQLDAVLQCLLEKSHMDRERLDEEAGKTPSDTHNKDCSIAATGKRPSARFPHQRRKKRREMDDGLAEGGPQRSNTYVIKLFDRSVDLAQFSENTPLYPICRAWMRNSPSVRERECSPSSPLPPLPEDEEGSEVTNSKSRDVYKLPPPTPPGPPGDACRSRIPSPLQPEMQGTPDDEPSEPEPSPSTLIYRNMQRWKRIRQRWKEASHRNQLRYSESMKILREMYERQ
UniProt P48449: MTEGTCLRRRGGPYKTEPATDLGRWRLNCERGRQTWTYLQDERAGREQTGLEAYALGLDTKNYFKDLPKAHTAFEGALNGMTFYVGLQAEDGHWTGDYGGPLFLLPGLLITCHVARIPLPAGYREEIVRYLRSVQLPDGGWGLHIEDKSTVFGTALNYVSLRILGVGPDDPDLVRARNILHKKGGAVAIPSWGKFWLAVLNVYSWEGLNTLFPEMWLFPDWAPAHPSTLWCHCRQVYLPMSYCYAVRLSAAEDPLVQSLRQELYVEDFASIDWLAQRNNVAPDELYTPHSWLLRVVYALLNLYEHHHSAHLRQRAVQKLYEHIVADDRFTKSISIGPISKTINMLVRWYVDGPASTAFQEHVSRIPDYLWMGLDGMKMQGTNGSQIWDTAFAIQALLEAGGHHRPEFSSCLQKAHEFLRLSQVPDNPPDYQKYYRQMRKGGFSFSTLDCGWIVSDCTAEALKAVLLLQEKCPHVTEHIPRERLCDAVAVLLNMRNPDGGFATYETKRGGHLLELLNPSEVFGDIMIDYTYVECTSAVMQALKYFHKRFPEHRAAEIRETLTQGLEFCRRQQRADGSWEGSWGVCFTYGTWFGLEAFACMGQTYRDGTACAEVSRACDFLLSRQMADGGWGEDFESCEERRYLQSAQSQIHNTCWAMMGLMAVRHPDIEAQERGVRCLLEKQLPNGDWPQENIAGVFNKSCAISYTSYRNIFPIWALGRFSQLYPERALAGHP
UniProt Q9H0V9: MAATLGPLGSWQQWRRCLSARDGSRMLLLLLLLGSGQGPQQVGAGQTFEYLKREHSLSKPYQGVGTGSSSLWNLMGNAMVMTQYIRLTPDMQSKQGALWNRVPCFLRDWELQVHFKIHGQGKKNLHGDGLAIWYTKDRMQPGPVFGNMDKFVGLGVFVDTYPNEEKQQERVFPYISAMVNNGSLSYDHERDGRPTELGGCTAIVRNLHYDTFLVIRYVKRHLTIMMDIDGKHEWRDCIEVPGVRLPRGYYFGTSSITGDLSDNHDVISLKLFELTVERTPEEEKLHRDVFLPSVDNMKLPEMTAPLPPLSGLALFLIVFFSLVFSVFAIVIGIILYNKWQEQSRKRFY
UniProt Q14847: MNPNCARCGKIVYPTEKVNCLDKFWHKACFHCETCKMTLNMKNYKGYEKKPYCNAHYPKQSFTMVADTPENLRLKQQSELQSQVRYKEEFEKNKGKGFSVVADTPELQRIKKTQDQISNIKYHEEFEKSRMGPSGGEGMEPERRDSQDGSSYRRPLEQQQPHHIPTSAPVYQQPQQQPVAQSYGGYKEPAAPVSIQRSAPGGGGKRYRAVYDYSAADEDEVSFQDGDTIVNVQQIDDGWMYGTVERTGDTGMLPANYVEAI

Legend:
Experiment in all cases: log2 fold change, soluble protein after heating vs DMSO (PISA); higher = thermal stabilisation; K562 lysate, 10 uM; active = over 0.2 and 3.5 SD of the protein, either way, in both replicates (recomputed)
alvocidib = compound: CN1CC[C@H](c2c(O)cc(O)c3c(=O)cc(-c4ccccc4Cl)oc23)[C@H](O)C1 [alvocidib]
Outline: (§1)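 Pellets of K562 cells were dounce-homogenised in PBS pH 7.4 with 1 mM MgCl2, and the crude extract was held at 1 mg/mL protein for a 30 min treatment with 10 μM compound. Aliquots were heated for 3 min over 48°C-58°C and pooled before NP-40 was added to 0.5% at 4°C. The supernatant from 21,000xg for 90 min was quantified by TMTpro 16plex LC-MS/MS with channel sums equalised. Values are reported from duplicates as log-two fold change in thermal stability relative to solvent controls.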

Tubastatin A = compound: CN1CCc2c(c3ccccc3n2Cc2ccc(C(=O)NO)cc2)C1 [Tubastatin A]
Outline: as §1

[1] = compound: CNC(=O)C1=CC=CC=C1NC2=NC(=NC=C2Cl)NC3=C(C=C(C=C3)N4CCOCC4)OC
Outline: as §1

defactinib = compound: CNC(=O)c1ccc(Nc2ncc(C(F)(F)F)c(NCc3nccnc3N(C)S(C)(=O)=O)n2)cc1 [defactinib]
Outline: as §1

[2] = compound: CNc1nc(-c2ccc3c(N)n[nH]c3c2)cc(N2C[C@@H](C(=O)NC3CCCCC3)CC[C@H]2C)n1
Outline: as §1

encorafenib = compound: COC(=O)N[C@@H](C)CNc1nccc(-c2cn(C(C)C)nc2-c2cc(Cl)cc(NS(C)(=O)=O)c2F)n1 [encorafenib]
Outline: as §1

[3] = compound: COC(=O)[C@H](CCSC)NC(=O)C1=C(C=C(C=C1)NC[C@H](CS)N)C2=CC=CC=C2
Outline: as §1

alisertib = compound: COc1cc(Nc2ncc3c(n2)-c2ccc(Cl)cc2C(c2c(F)cccc2OC)=NC3)ccc1C(=O)O [alisertib]
Outline: as §1

[4] = compound: COc1cc2nc(-c3cc(F)ccc3O)nc(N[C@@H]3CNC[C@H]3C(C)(C)O)c2cc1OC
Outline: as §1

gefitinib = compound: COc1cc2ncnc(Nc3ccc(F)c(Cl)c3)c2cc1OCCCN1CCOCC1 [gefitinib]
Outline: as §1

lapatinib = compound: CS(=O)(=O)CCNCc1ccc(-c2ccc3ncnc(Nc4ccc(OCc5cccc(F)c5)c(Cl)c4)c3c2)o1 [lapatinib]
Outline: as §1

pictilisib = compound: CS(=O)(=O)N1CCN(Cc2cc3nc(-c4cccc5[nH]ncc45)nc(N4CCOCC4)c3s2)CC1 [pictilisib]
Outline: as §1

crizotinib = compound: C[C@@H](Oc1cc(-c2cnn(C3CCNCC3)c2)cnc1N)c1c(Cl)ccc(F)c1Cl [crizotinib]
Outline: as §1

[5] = compound: C[C@H](C1=CC=C(C=C1)C(=O)NC2=C3C=CNC3=NC=C2)N
Outline: as §1

duvelisib = compound: C[C@H](Nc1ncnc2nc[nH]c12)c1cc2cccc(Cl)c2c(=O)n1-c1ccccc1 [duvelisib]
Outline: as §1

gandotinib = compound: Cc1cc(Nc2cc(CN3CCOCC3)c3nc(C)c(Cc4ccc(Cl)cc4F)n3n2)n[nH]1 [gandotinib]
Outline: as §1

tozasertib = compound: Cc1cc(Nc2cc(N3CCN(C)CC3)nc(Sc3ccc(NC(=O)C4CC4)cc3)n2)n[nH]1 [tozasertib]
Outline: as §1

doramapimod = compound: Cc1ccc(-n2nc(C(C)(C)C)cc2NC(=O)Nc2ccc(OCCN3CCOCC3)c3ccccc23)cc1 [doramapimod]
Outline: as §1

bafetinib = compound: Cc1ccc(NC(=O)c2ccc(CN3CC[C@H](N(C)C)C3)c(C(F)(F)F)c2)cc1Nc1nccc(-c2cncnc2)n1 [bafetinib]
Outline: as §1

[6] = compound: Cc1cccc(CC(=O)N2CCc3c2ccc(-c2cn(C)c4ncnc(N)c24)c3F)n1
Outline: as §1

Target | log2 fold change (alvocidib) | log2 fold change (Tubastatin A) | log2 fold change [1] | log2 fold change (defactinib) | log2 fold change [2] | log2 fold change (encorafenib) | log2 fold change [3] | log2 fold change (alisertib) | log2 fold change [4] | log2 fold change (gefitinib) | log2 fold change (lapatinib) | log2 fold change (pictilisib) | log2 fold change (crizotinib) | log2 fold change [5] | log2 fold change (duvelisib) | log2 fold change (gandotinib) | log2 fold change (tozasertib) | log2 fold change (doramapimod) | log2 fold change (bafetinib) | log2 fold change [6]
LGALS1 (UniProt P09382) | inactive: 0.024 | inactive: 0.048 | inactive: -0.006 | inactive: 0.006 | inactive: 0.068 | inactive: 0.007 | inactive: -0.043 | inactive: 0.038 | inactive: -0.006 | inactive: -0.041 | inactive: 0.029 | inactive: 0.029 | inactive: 0.017 | inactive: 0.03 | inactive: 0.013 | inactive: -0.016 | inactive: 0.009 | inactive: 0.01 | inactive: 0.055 | inactive: 0.012
LDHB (UniProt P07195) | inactive: 0.021 | inactive: 0.04 | inactive: 0.002 | inactive: -0.027 | inactive: 0.025 | inactive: -0.05 | inactive: -0.04 | inactive: 0.019 | inactive: 0.015 | inactive: -0.03 | inactive: -0.016 | inactive: -0.001 | inactive: 0.016 | inactive: -0.005 | inactive: 0.003 | inactive: 0.049 | inactive: -0.031 | inactive: -0.04 | inactive: 0.02 | inactive: -0.02
LMO2 isoform 3 (UniProt P25791) | inactive: 0.067 | inactive: -0.029 | inactive: 0.048 | inactive: 0.01 | inactive: 0.066 | inactive: -0.102 | inactive: 0.22 | inactive: 0.016 | inactive: -0.059 | inactive: 0.012 | inactive: -0.057 | inactive: 0.085 | inactive: 0.006 | inactive: -0.166 | inactive: -0.138 | inactive: 0.109 | inactive: 0.113 | inactive: 0.044 | inactive: -0.067 | inactive: -0.063
LIG4 (UniProt P49917) | inactive: 0.02 | inactive: -0.025 | inactive: -0.04 | inactive: 0.063 | inactive: 0.005 | inactive: 0.048 | active: 0.415 | inactive: -0.049 | inactive: -0.096 | inactive: -0.069 | inactive: 0.028 | inactive: -0.245 | inactive: -0.035 | inactive: -0.064 | inactive: 0.022 | inactive: -0.07 | inactive: -0.034 | inactive: -0.037 | inactive: -0.167 | inactive: 0.073
LIN37 (UniProt Q96GY3) | inactive: -0.129 | inactive: -0.09 | inactive: -0.05 | inactive: 0.105 | inactive: -0.002 | inactive: -0.317 | inactive: 0.159 | inactive: -0.081 | inactive: 0 | inactive: 0.065 | inactive: 0.039 | inactive: -0.158 | inactive: -0.119 | inactive: -0.025 | inactive: -0.056 | inactive: 0.041 | inactive: 0.013 | inactive: 0.111 | inactive: 0.022 | inactive: 0.027
LSS (UniProt P48449) | inactive: -0.011 | inactive: 0.021 | inactive: -0.03 | inactive: -0.026 | inactive: 0.021 | inactive: 0.031 | inactive: 0.02 | inactive: 0.011 | inactive: 0.032 | inactive: 0.055 | inactive: 0 | inactive: 0.11 | active: 0.252 | inactive: 0.01 | inactive: 0.008 | inactive: 0.028 | inactive: 0.02 | inactive: 0.031 | inactive: 0.13 | inactive: -0.013
LMAN2L isoform 2 (UniProt Q9H0V9) | inactive: 0.018 | inactive: 0.05 | inactive: 0.014 | inactive: -0.027 | inactive: 0.004 | inactive: 0.028 | inactive: -0.032 | inactive: -0.043 | inactive: 0.023 | inactive: -0.029 | inactive: -0.05 | inactive: -0.031 | inactive: -0.034 | inactive: -0.023 | inactive: -0.02 | inactive: -0.01 | inactive: 0.014 | inactive: -0.055 | inactive: -0.035 | inactive: 0.069
LASP1 (UniProt Q14847) | inactive: 0.013 | inactive: 0.062 | inactive: -0.011 | inactive: -0.022 | inactive: 0.034 | inactive: -0.056 | inactive: -0.024 | inactive: -0.007 | inactive: -0.015 | inactive: -0.004 | inactive: 0.004 | inactive: -0.005 | inactive: 0.032 | inactive: -0.017 | inactive: 0.006 | inactive: 0.045 | inactive: -0.01 | inactive: -0.018 | inactive: 0.024 | inactive: -0.014
